The record followed here is PMC7819943, “Rice protein-binding microarrays: a tool to detect cis-acting elements near promoter regions in rice”.

The chains behind the UniProt entries cited, without tags or fusion partners.
UniProt Q0JBA9, entry or part of it: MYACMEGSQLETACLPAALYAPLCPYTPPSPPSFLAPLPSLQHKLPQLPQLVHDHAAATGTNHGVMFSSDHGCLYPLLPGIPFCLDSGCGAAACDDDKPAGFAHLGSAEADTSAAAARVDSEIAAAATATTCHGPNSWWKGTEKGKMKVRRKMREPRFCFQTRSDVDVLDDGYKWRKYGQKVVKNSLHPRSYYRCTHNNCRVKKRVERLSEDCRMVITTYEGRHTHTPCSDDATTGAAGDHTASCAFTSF

The other results are listed elsewhere or left out.

The assay has as its target OsWRKY34 (Oryza sativa, UniProt Q0JBA9 1-250). Briefly: protein-binding microarray (RPBM); PBS, 2% BSA, 51.3 ng/ul salmon testes DNA, 50 uM zinc acetate, 200 nM TF, 25 C, 1 h; high values mean tight binding. The note with it: protein: recombinant; tags: N-terminal polyhistidine and DsRed monomer fusion (pET32a); label: CyDye5-dUTP incorporated in the synthesized complementary strand; 3' TTTTT single-stranded linker to array surface; dsDNA, one strand shown. The procedure, abridged: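 A custom Agilent array was converted to double-stranded form by primer extension with Cy5-dUTP and blocked with 2% BSA. Protein at 200 nM in PBS with 2% BSA, salmon testes DNA and 50 µM zinc acetate was applied for 1 h at 25 °C, followed by washing. The proteins were polyhistidine–DsRed N-terminal fusions of transcription factors, expressed in E. coli BL21-CodonPlus and Ni–NTA-purified. The binding signal is per-feature fluorescence intensity (arbitrary units) from an Axon 4000B scanner.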
With “CTATTTGTCTCTTTGGCCTATTTTTAGAGCGCTCATGTCTCGGAGTCACCTAGTGCAG”, the binding signal is 8660 fluorescence intensity (a.u.). In the case of “TCTATTTCCGCTAAAAGTTTTCGGTTTTTGGGTATATCAACGGAGTCACCTAGTGCAG” it was 8610 fluorescence intensity (a.u.); in that of “TCCACTTGCATCTCTCTCTCTCTCTCTCCCAATTATATTTCGGAGTCACCTAGTGCAG”, 11300 fluorescence intensity (a.u.); in that of “TGTCGCCATTGATGCCGATCTCGGGCCATTCCTCTGTCGACGGAGTCACCTAGTGCAG”, 9710 fluorescence intensity (a.u.).

“TTCCGGCCCGCGTTCTTTTTGAAGTCCAGTTTACGTCCTTCGGAGTCACCTAGTGCAG”: the binding signal was 10800 fluorescence intensity (a.u.). Consider “CTTTTACGTCCGTTTTTTTCTTCCCTTCTCGTCAGACAAACGGAGTCACCTAGTGCAG”, for which the binding signal is 9270 fluorescence intensity (a.u.). The result for “CGGTCTTGTTGCAGACACGTCCTTCCTATTTGTTTCCAAACGGAGTCACCTAGTGCAG” reads 10400 fluorescence intensity (a.u.); that for “AATGTTCGTGAAAGTGCAAATGTGGTGTTGCATGTGTAGTCGGAGTCACCTAGTGCAG”, 8110 fluorescence intensity (a.u.). The result for “ATCACCCTGCTCCTGTCCTGGAAGATCTCAGGGTTGCCACCGGAGTCACCTAGTGCAG” reads 8080 fluorescence intensity (a.u.); that for “ACCCATCATCACCTTCAACCTAACGATCGACCTGTACGTACGGAGTCACCTAGTGCAG”, 8090 fluorescence intensity (a.u.); that for “AATTAATACATGGTCCACTTATCTTTCTCACAAAGTTTCTCGGAGTCACCTAGTGCAG”, 9070 fluorescence intensity (a.u.).

For the sequence “GCTGGGCACTTACTGCATCGATCGATCTCCTCTTCAGAACCGGAGTCACCTAGTGCAG”, the binding signal is 10500 fluorescence intensity (a.u.).

In the case of “AATCCAACGTGGTTGTTGCCTCTGTACTGTACTGTACTCCCGGAGTCACCTAGTGCAG”, the binding signal was 8180 fluorescence intensity (a.u.).

For “GCCGACTCATGCTCTCTCTCCTATTTAGCTCATTGACAAACGGAGTCACCTAGTGCAG”, the binding signal is 10200 fluorescence intensity (a.u.). In the case of “GGATGTTTAGTCTTTTACATATCTGTTTTTTTTTTCTGAACGGAGTCACCTAGTGCAG” it was 10100 fluorescence intensity (a.u.); in that of “GAATGATGACTGGACTGCCACACGTACACCACGTAGACCACGGAGTCACCTAGTGCAG”, 9800 fluorescence intensity (a.u.). The result for “TGCCAAATCGTGGGCCCCACGCTTTTTTCCCCATCTCCTCCGGAGTCACCTAGTGCAG” reads 10200 fluorescence intensity (a.u.).

Take “ACACACAAGCACAATGAGAGACGCTTGGTGGGGTGGGGTGCGGAGTCACCTAGTGCAG”: the binding signal was 9870 fluorescence intensity (a.u.). The result for “GCCACACCAGCCACACCACGCTCGCACGCCGCCTCCGCCGCGGAGTCACCTAGTGCAG” reads 14200 fluorescence intensity (a.u.); that for “CATTTCTTGCATCTCCAATTATACTCTTGCTTCCAATTTCCGGAGTCACCTAGTGCAG”, 11600 fluorescence intensity (a.u.). In the case of “GCTTCCTCGGCCTCGGGCCGCGTCTCCATGGTCGACTTGACGGAGTCACCTAGTGCAG” it was 11200 fluorescence intensity (a.u.); in that of “CTGTATCCATCCCTAAATATTTGACGCCGTTGACTTTTCTCGGAGTCACCTAGTGCAG”, 25600 fluorescence intensity (a.u.); in that of “TCCTCTGCCTCCACCGCCGTCTGCGCCGATCCCCATCCATCGGAGTCACCTAGTGCAG”, 9980 fluorescence intensity (a.u.).

As to “ATCCCATTGGCAAATGATGCCTATAGCTGTGACTTATGAACGGAGTCACCTAGTGCAG”, the binding signal is 8880 fluorescence intensity (a.u.).

As for “AAGACTTTTGCTGCATTCTGTTTTTGTCCATGAACCATATCGGAGTCACCTAGTGCAG”, the binding signal was 9400 fluorescence intensity (a.u.). The result for “GTTGGGTTATTTCGGAAGGGAGGGAGTACTTGTCATCCCGCGGAGTCACCTAGTGCAG” reads 9100 fluorescence intensity (a.u.); that for “GGTTCTCATGGTGTGATCTCAGTAGTTTCTTGGTCTTATTCGGAGTCACCTAGTGCAG”, 8160 fluorescence intensity (a.u.). The result for “AGCCGACGCATCATCTACTCATCACACATTTAATTTTTCCCGGAGTCACCTAGTGCAG” reads 14100 fluorescence intensity (a.u.). The result for “ACATTTCCTACACTTCCGGTACTTGTCAATTTCCCATCACCGGAGTCACCTAGTGCAG” reads 10000 fluorescence intensity (a.u.). In the case of “TAAATTTATCTTGGATCGCAAATATTACTATTTTTTTATACGGAGTCACCTAGTGCAG”, the binding signal is 8400 fluorescence intensity (a.u.).

In the case of “GTAAAGTTGGCCATCTCTCGCCCACCGCTTCACCTTCACTCGGAGTCACCTAGTGCAG”, the binding signal was 10400 fluorescence intensity (a.u.). The result for “CCGCTTTTCTTCCAGTCTTTCTCCTCCGTCTCTCATCCTCCGGAGTCACCTAGTGCAG” reads 11000 fluorescence intensity (a.u.); that for “TGATTTAGTTTGTGTTCTGTCATGTATAACCCTTGTTTCTCGGAGTCACCTAGTGCAG”, 8920 fluorescence intensity (a.u.); that for “AAAACCGGAACTCTCACCCTCAACCATCTCACTGTTGACACGGAGTCACCTAGTGCAG”, 9100 fluorescence intensity (a.u.). The result for “GTTTTCTCGCTTTTTTTTCCTTTCCTACGGACGACGGAAACGGAGTCACCTAGTGCAG” reads 12900 fluorescence intensity (a.u.).

Turning to “ATTTGAGTTCAATTTTTCTATGGTTGGTTCTTGTGTGTCCCGGAGTCACCTAGTGCAG”, the binding signal was 8160 fluorescence intensity (a.u.). In the case of “AAAATCCTTTTATGTCCTTGCCGTTGAATTGTTATAATTTCGGAGTCACCTAGTGCAG” it was 8780 fluorescence intensity (a.u.); in that of “TACTCTGCCTCTCGTTGTTGTCTTCTTCTTCTTGCCTTCTCGGAGTCACCTAGTGCAG”, 9160 fluorescence intensity (a.u.). In the case of “GTCCCACATATATGTTTTTAATTCAAATGCCACCTAAGCGCGGAGTCACCTAGTGCAG” it was 8490 fluorescence intensity (a.u.).

Turning to “TGGGGATGGCGGAGGTTAGCGGCGCGCTTTTTTTTCTATTCGGAGTCACCTAGTGCAG”, the binding signal is 14500 fluorescence intensity (a.u.).

“GGCCCGAAACGCATACTCTGCCGGCGTACACATGTCACAGCGGAGTCACCTAGTGCAG”: the binding signal is 9100 fluorescence intensity (a.u.). For “AGTCCTTATTACCGTTTGATCATCAGAGCATCCACACCCACGGAGTCACCTAGTGCAG”, the binding signal was 8590 fluorescence intensity (a.u.). The result for “ATTTCAATCTCTATAGGTTCTCTGATCTCGTTCGCAATCCCGGAGTCACCTAGTGCAG” reads 9280 fluorescence intensity (a.u.); that for “CTTTTATACGCGCCAGTCACGCCGCCGCTCGTCCCGTTTCCGGAGTCACCTAGTGCAG”, 11100 fluorescence intensity (a.u.). The result for “AGTAATGACGACCTCTTTATATTTTAGACTTTTACTAACACGGAGTCACCTAGTGCAG” reads 8030 fluorescence intensity (a.u.); that for “GAGGAGACGCTCATATGAGTGGGTTGAGGGTGGGCCAGTGCGGAGTCACCTAGTGCAG”, 8620 fluorescence intensity (a.u.); that for “CGAGGGAGGGGAGGCGGCGGAGGCGAGAGAGGAGAGGGGACGGAGTCACCTAGTGCAG”, 11000 fluorescence intensity (a.u.). As for “ATTTTTTTTGTTGCCAACAACTTTTGGATAATACGGATCTCGGAGTCACCTAGTGCAG”, the binding signal was 8250 fluorescence intensity (a.u.). The result for “TGTTGTTTTTTTTTTTTTGGTCTCGCGAAATCCAAAGACCCGGAGTCACCTAGTGCAG” reads 8200 fluorescence intensity (a.u.). Regarding “TTTTATGCTCTCAGATGTGTGTGATCTGAATTCCTTTTTTCGGAGTCACCTAGTGCAG”, the binding signal was 10200 fluorescence intensity (a.u.).

As for “AGTTGATTCGTTGACTTGTTCTTTGCGCGATTAGGAAAAGCGGAGTCACCTAGTGCAG”, the binding signal was 9250 fluorescence intensity (a.u.). In the case of “GGCGGCGGAGGAGGAGGAGGCGCGAGGGGAGGCGAGCATGCGGAGTCACCTAGTGCAG” it was 8150 fluorescence intensity (a.u.); in that of “GGATCACTACATTCAACAAAATATGTACCGTCATATCCCACGGAGTCACCTAGTGCAG”, 8160 fluorescence intensity (a.u.). In the case of “GCTGTTATTGGTTTCAAATTTTCATCTAGCTCCTAATTGTCGGAGTCACCTAGTGCAG” it was 8390 fluorescence intensity (a.u.).
